The results in this text go back to paper PMC11071249.

Sequences of proteins named here, by UniProt entry; tags and fusion partners are left off.
UniProt Q9Y4B6: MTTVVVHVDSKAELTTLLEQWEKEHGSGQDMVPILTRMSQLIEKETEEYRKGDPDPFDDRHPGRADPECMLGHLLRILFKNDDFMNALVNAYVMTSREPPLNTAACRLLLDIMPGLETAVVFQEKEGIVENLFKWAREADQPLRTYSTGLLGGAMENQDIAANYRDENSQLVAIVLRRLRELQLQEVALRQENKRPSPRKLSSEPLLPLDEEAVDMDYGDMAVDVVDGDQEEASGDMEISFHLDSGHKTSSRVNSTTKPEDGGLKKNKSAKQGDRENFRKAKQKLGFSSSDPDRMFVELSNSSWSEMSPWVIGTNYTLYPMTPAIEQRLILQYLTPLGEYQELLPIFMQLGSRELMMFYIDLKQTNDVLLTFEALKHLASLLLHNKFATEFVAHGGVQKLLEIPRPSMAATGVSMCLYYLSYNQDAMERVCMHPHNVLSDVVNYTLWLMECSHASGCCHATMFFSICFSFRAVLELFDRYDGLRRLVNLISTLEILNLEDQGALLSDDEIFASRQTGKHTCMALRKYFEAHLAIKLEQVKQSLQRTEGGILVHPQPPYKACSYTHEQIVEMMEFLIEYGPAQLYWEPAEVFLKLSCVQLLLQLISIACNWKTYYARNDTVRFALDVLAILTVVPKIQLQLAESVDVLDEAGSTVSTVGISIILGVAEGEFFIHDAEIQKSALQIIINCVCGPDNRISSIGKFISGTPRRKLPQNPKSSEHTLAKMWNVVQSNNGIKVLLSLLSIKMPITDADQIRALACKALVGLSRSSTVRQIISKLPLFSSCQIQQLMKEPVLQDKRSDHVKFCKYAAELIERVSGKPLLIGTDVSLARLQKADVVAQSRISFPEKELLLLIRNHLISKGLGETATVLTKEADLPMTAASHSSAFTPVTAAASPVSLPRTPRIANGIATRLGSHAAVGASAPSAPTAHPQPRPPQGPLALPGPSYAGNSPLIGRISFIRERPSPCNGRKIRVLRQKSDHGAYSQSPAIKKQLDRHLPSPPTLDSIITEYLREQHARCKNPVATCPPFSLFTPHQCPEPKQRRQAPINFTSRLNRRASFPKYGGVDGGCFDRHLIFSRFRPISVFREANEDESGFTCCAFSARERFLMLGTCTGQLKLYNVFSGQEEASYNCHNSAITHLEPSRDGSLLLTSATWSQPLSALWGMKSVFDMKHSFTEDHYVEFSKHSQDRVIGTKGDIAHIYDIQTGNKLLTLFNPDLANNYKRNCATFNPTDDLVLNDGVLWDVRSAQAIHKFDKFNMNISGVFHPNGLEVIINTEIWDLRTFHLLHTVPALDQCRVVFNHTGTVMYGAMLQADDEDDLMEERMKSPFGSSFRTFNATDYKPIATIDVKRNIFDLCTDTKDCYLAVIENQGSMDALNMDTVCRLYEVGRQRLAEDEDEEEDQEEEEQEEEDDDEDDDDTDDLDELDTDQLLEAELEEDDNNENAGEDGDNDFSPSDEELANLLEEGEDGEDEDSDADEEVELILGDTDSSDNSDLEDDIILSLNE
UniProt Q8TEW0: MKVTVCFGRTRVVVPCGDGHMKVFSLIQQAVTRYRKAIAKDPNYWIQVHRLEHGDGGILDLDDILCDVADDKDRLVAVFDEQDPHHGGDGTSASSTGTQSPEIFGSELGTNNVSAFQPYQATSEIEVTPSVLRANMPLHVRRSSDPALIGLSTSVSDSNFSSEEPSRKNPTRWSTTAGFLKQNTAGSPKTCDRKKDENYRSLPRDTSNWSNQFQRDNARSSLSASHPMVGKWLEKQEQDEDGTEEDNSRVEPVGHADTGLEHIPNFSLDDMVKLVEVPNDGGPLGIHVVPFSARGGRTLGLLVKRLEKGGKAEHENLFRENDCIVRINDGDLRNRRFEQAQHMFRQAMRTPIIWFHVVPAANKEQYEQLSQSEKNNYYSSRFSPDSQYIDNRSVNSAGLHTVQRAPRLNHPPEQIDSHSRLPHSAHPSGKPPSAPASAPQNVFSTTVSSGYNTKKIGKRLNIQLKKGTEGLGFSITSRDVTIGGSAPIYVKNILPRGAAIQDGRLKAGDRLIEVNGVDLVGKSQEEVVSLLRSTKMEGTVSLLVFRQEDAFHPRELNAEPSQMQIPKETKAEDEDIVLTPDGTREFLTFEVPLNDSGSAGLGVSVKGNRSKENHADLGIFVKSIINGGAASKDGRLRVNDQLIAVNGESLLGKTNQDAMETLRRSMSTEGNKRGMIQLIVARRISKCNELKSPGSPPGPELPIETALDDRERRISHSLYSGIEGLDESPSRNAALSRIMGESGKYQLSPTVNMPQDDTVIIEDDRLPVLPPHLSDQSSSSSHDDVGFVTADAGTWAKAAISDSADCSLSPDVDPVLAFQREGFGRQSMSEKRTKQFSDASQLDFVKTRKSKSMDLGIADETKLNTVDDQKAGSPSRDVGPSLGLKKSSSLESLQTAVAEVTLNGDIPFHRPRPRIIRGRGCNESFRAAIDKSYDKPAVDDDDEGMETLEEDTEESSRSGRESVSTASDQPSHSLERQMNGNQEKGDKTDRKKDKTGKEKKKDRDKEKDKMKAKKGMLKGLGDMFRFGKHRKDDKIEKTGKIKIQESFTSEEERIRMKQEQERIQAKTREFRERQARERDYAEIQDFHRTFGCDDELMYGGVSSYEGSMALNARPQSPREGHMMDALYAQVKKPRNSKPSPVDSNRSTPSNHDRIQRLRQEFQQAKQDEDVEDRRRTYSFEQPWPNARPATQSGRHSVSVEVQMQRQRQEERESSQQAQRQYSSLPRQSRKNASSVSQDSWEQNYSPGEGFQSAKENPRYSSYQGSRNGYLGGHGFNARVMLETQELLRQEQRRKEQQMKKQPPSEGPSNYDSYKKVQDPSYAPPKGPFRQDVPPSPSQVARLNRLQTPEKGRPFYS

The target of the experiment is DDB1 and CUL4 associated factor 1 (DCAF1) (UniProt Q9Y4B6). Kind of experiment: co-IP; cell lysates incubated with primary antibodies and Protein A + G magnetic beads at 4°C overnight, Western blot; cells not told. For orientation: Immunoblotting shows a protein as a band on a membrane.

These are yes or no findings as the source states them, for the method shown. Binding seen in cells or lysates may run through a third protein. Some binding calls cover weakened binding; strength is not graded here.

As to “par-3 family cell polarity regulator (PARD3) (from UniProt Q8TEW0 1-1356)”, the binding entry is “binds”.
